Not every detail of the peptide structures is certain; ends, links or a residue may be inferred. Where no end group is shown, it is not given here.
How the values were obtained:
E. coli = test: bactericidal activity at 15 μM, CFU versus control; format: cell-based
Method: (§1) The bactericidal activity of further AMP peptides according to the invention, in particular of the RiLK31 peptide (RLRWVKIWKK, SEQ ID NO:31) and the RiLK3 peptide (RLRWVRIWRR, SEQ ID NO:3), was tested. The bactericidal activity was expressed as a percentage of viable cells in terms of CFU (Colony Forming Units) in a bacterial sample exposed to each peptide compared to those in a control bacterial sample in the absence of the peptide. All tests were carried out with the same peptide concentration, corresponding to 15 μM.

Salmonella = test: bactericidal activity at 15 μM, CFU versus control; format: cell-based
Method: as §1

## RLRWVRIWRR-NH2 [RiLK3, RLRWVRIWRR]
E. coli
  bactericidal activity: 100%
Salmonella
  bactericidal activity: 100%

## RLRWVKIWKK-NH2 [RiLK31, RLRWVKIWKK]
E. coli
  bactericidal activity: 100%
Salmonella
  bactericidal activity: 100%

Reference: patent publication US20260234187A1, “ANTIMICROBIAL PEPTIDES” (MATERIAS S.R.L., priority 2020, published 2026)
